Patent US6537803B1, “Amino acid transporters and uses” (Oregon Health Sciences University, priority 1993, dated 2003)
Some results were stated once for a whole list of compounds, not compound by compound.

Target: T1, human ASCT1 neutral amino acid transporter (Homo sapiens, UniProt P43007)
T1 construct: expressed in transfected cells; host or cells: Xenopus laevis oocytes injected with in vitro transcribed RNA (pOTV vector)
T1 sequence (P43007 1-532): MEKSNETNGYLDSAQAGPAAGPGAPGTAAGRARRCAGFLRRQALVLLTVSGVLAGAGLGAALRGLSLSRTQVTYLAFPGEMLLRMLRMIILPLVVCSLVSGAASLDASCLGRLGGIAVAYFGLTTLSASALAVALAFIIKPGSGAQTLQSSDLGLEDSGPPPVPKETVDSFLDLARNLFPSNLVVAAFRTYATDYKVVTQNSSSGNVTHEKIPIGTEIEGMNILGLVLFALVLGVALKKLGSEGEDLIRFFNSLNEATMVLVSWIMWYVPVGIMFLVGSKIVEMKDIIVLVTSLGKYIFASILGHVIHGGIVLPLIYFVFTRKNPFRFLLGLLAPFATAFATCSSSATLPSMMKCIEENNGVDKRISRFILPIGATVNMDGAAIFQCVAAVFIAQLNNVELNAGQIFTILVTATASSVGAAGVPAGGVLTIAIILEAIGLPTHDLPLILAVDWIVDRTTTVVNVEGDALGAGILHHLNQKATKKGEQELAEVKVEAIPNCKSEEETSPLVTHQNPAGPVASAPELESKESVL
Assay: amino acid-induced inward current in voltage-clamped ASCT1-injected Xenopus oocytes
Format: cell-based
Settings: L-stereoisomers
Source text: Following the PCR, the product of the amplification reaction was purified using standard techniques (Saiki et al., 1988, Science 239: 487-491). The DNA then digested with the restriction enzymes KpnI and XbaI and then cloned into the polylinker of an oocyte transcription vector (POTV; see Wang el al., 1991, Nature 352: 729-731) that had been digested with KpnI and XbaI. Synthetic RNA was then transcribed in vitro from this clone using the method of Kavanaugh et al. (1992, J. Biol. Chem. 267: 22007-22009) employing bacteriophage T7 RNA polymerase (New England Biolabs, Beverly, Mass.). 20-50 nL of ASCT1 RNA (at a concentration of about 400 μg/mL) was injected into defolliculated stage V-VI Xenopus oocytes excised from female Xenopus laevis anesthetized by immersion in 3-aminobenzoic acid for 60 min. Excised oocytes were treated with collagenase II (Sigma Chemical Co., St. Louis, Mo.) in calcium-free Barth's saline solution [comprising 88 mM NaCl, 1 mM KCl, 2.4 mM NaHCO3, 0.82 mM MgSO4, 7.5 mM Tris-HCl (pH 7.6), 50 U/mL Nystatin (Sigma) and 0.1 mg/mL gentamycin (Sigma)] for 60 min., and then incubated overnight at 15° C. in 50% Leibowitz's L-15 media (Grand Island Biological Co. (GIBCO), Long Island, N.Y.). […]

| SMILES | concentration at which the inward current flux saturates and reaches a plateau [µM] |
| --- | --- |
| N[C@@H](CS)C(=O)O [L-cysteine] | 400 to 1000 |
| N[C@@H](CO)C(=O)O [L-serine] | 400 to 1000 |
